The results in this text go back to patent US20240209027A1 (PeptiAID Inc.,, priority 2021, published 2024).

A short description of the data set: general procedure: Fmoc solid-phase peptide synthesis; Sieber amide resin; HATU/DIEA. The note with it: whole synthesis, UV 225 nm, scale of the general procedure 5 mg to 2 g resin for each peptide.

Take MeA-MeF-S-Cha-Y-S-Y-Y-R-R-Cha-C: the “final purity (method not given)” value is reported as 91.67%.
